Assay results: PubChem BioAssay AID1671190 (National Center for Advancing Translational Sciences (NCATS), 2021)
Several values for one entry are separate records, joined by “and”; a condition that tells them apart may be missing. Identical values can stand only once. The campaign covered roughly 580,000 compounds. About 6,100 (1.1%) were called active. Inconclusive means that the source gave no clear call. Such entries were picked first, then a sample of the others. Calls follow the shape of the dose curve; as a rule, active = well fitted inhibition curve with a large enough effect; inconclusive = small, poorly fitted or top-dose-only effect, or another doubt; inactive = no such curve, though single readings can be large or run the other way. Where the call is inconclusive, the potency comes from a doubtful curve fit.
% is scaled to controls: 0 for no effect and ±100 for the full control effect; potency is read from the fitted curve at half-maximal effect.

The chains behind the UniProt entries cited, without tags or fusion partners.
UniProt P18054, whole entry, looked up: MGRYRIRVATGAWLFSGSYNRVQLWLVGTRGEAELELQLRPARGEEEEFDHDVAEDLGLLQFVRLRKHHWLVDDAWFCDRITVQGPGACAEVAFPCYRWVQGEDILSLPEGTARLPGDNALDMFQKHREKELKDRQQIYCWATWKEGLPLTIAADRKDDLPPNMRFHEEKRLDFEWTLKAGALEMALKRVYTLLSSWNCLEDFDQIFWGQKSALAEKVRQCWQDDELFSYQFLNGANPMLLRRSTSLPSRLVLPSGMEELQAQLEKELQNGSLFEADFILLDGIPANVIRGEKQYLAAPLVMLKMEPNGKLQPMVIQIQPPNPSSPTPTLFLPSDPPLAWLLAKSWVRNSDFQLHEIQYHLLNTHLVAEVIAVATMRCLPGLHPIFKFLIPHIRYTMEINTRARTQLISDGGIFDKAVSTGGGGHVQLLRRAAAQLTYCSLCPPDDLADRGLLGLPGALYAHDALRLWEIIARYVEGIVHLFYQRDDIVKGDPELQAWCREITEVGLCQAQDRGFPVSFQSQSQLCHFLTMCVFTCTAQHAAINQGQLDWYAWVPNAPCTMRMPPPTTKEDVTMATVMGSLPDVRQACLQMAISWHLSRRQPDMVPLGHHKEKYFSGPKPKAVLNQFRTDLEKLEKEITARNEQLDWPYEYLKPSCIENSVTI

Each compound was assayed against Polyunsaturated fatty acid lipoxygenase ALOX12 (Homo sapiens) (UniProt P18054) (assay: Primary qHTS assay for inhibitors of human arachidonate 12S-lipoxygenase (ALOX12): Round 2). Details: purified 12hLO, xylenol orange hydroperoxide absorbance; activity change, negative = inhibition: at 108 µM (top of the series) unless noted.
How it was run: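 Purified human 12hLO (150 nM final) in 25 mM Hepes, 0.01% Triton X-100, pH 7.0 was preincubated 15 min at room temperature with compound. Then 40 uM arachidonic acid was added, 30 min. Hydroperoxide was read by Fe-XO absorbance ratio 573/405 nm.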
For `COc1ccc(CC(=O)NCc2cccc(CNC(=O)Cc3ccc(OC)c(OC)c3)c2)cc1OC`, the “activity change, negative = inhibition” value was inactive: 25.7%. `Cc1cnc(-c2cc(N3CCN(C(=O)CCS(C)(=O)=O)CC3)ncc2Cl)c(C)c1` was tested, and the Potency was inconclusive: 24.3 µM [inhibitor, partial curve]. `CCOc1ccc(NC(=O)CC2C(=O)N(C)C(=S)N2Cc2ccc3c(c2)OCO3)cc1` (configuration not stated) was tested, and the Potency was inconclusive: 5.62 µM [inhibitor, partial curve, poor fit]. With `O=C(c1ccco1)N1CCC(C(=O)N2CCCCC2)CC1` the “activity change, negative = inhibition” value was inactive: 1.9%. For `CCOc1ccc(N2CC(NC(=O)CCc3ccccc3)CC2=O)cc1` (configuration not stated), the activity change, negative = inhibition was inconclusive: -30.5% [inhibitor]. With `Cc1ccc2c(C(=O)NC3CC3)cnn2c1` the “activity change, negative = inhibition” value was inactive: 17.4% [at 176 µM]. `O=C(O)c1ccc(F)c(S(=O)(=O)N2CCCCC2)c1` was tested, and the “activity change, negative = inhibition” value was inactive: -20.8%. For `CCCN(CC(=O)Nc1ccccc1C)C(=O)COC(=O)CSc1ccc([N+](=O)[O-])cc1`, the Potency was inconclusive: 0.631 µM [inhibitor, full curve, poor fit]. `CCOC(=O)c1c(NC(=O)c2ccncc2)sc(C)c1C` was tested, and the Potency was inconclusive: 112 µM [inhibitor, partial curve, poor fit]. With `CCC(C)(C)n1nnnc1C(c1ccc(O)cc1)N1CCc2ccccc2C1` (configuration not stated) the Potency was inconclusive: 25.1 µM [inhibitor, partial curve]. With `CC1CC(C)CN(S(=O)(=O)c2ccc(NN)nc2)C1` (configuration not stated) the Potency was inconclusive: 112 µM [inhibitor, single point]. For `COc1ccc(C=O)cc1COc1ccc(C)cc1[N+](=O)[O-]`, the “activity change, negative = inhibition” value was inactive: 0%. For `CCCc1cc(-c2n[nH]c(=S)n2-c2cccc(C)c2)cs1`, the Potency was active: 44.7 µM. For `COc1ccccc1C(=O)NNC1=NS(=O)(=O)c2ccccc21`, the Potency was inconclusive: 31.6 µM [inhibitor, single point]. With `O=C(NC1CCCc2c1[nH]c1ccc(F)cc21)c1cccs1` (configuration not stated) the “activity change, negative = inhibition” value was inactive: 27%. For `O=C(CC(Sc1ccccc1)c1cccs1)c1ccco1` (configuration not stated), the “activity change, negative = inhibition” value was inactive: -4.23%. With `Cc1onc(-c2ccccc2)c1C(=O)OCc1nnc(-c2ccc([N+](=O)[O-])cc2)o1` the “activity change, negative = inhibition” value was inactive: 9.2%. For `O=C(COC(=O)c1ccccc1O)Nc1cc(S(=O)(=O)N2CCCCCC2)ccc1Cl`, the “activity change, negative = inhibition” value was inactive: 11.8%. In the case of `Cc1cccc(N/C=C(\[N+](=O)[O-])S(=O)(=O)c2ccccc2)c1`, the Potency is reported as inconclusive: 4.47 µM [inhibitor, full curve]. With `CSc1nsc(SC)c1NC(=O)OCC1CCCO1` (configuration not stated) the Potency was inconclusive: 31.6 µM [inhibitor, partial curve, poor fit]. In the case of `C=CCn1c(SCc2ccc(Cl)cc2)nc2cc(C(=O)N3CCC(C(N)=O)CC3)ccc2c1=O`, the Potency is reported as inconclusive: 126 µM [inhibitor, partial curve, poor fit]. In the case of `COCCNc1ccc([N+](=O)[O-])cc1C(=O)Nc1cccc(C)n1`, the “activity change, negative = inhibition” value is reported as inactive: 0%. With `COc1ccc(C(=O)Nc2ccc(-c3n[nH]c(=S)o3)cc2)cc1` the Potency was inconclusive: 39.8 µM [inhibitor, partial curve, poor fit]. For `O=C(Nc1ccc(NC(=O)C2CC2)nc1)c1ccccc1F`, the Potency was inconclusive: 28.2 µM [inhibitor, partial curve, poor fit]. With `COc1cc(CCCN2C(=S)NC[C@@H]2c2ccccc2)cc(OC)c1OC` the Potency was inconclusive: 44.7 µM [inhibitor, partial curve, poor fit]. For `COc1ccc(C2C(C(=O)c3ccc(C)o3)=C(O)C(=O)N2Cc2cccnc2)cc1OC` (configuration not stated), the Potency was active: 25.1 µM. With `COc1cccc([S+](=O)([O-])N2CCn3c(nnc3-c3ccc(Cl)cc3)C2)c1` the activity change, negative = inhibition was inactive: 0.343% [at 6.33 µM]. `Cc1noc(C(=O)Nc2sc3c(c2C#N)CCC3)c1Cl` was tested, and the Potency was inconclusive: 39.8 µM [inhibitor, partial curve, poor fit]. For `CCOc1ccc(/C=C2\Oc3cc(OS(C)(=O)=O)ccc3C2=O)cc1`, the Potency was inconclusive: 50.1 µM [inhibitor, partial curve, poor fit]. With `C/C(=C\C(=O)c1ccc(C)o1)Nc1ccc(C(=O)O)cc1C` the Potency was active: 25.1 µM. `CC(C)(C)c1ccc(-c2cc3ccccn3c2)cc1` was tested, and the Potency was active: 22.4 µM. `COc1ccc(C)cc1NC(=O)CSc1ccc(-c2ccco2)nn1` was tested, and the “activity change, negative = inhibition” value was inactive: 0%. In the case of `CC(C)c1nc2c(c(-c3ccc(O)cc3)n1)CCN(C(=O)c1cccc(Cl)c1)CC2`, the Potency is reported as inconclusive: 50.1 µM [inhibitor, partial curve, poor fit]. In the case of `Cc1ccc(OC(=O)c2ccc(CSc3ccc(Cl)cc3)cc2)c(C(C)(C)C)c1`, the Potency is reported as inconclusive: 44.7 µM [inhibitor, partial curve, poor fit]. In the case of `Cc1ccc2c(NCc3ccco3)nc(NC(C)C)nc2c1`, the Potency is reported as inconclusive: 50.1 µM [inhibitor, partial curve, poor fit]. With `Cc1ccc(-c2cc(C(=O)N3CCCCCC3)c3ccccc3n2)s1` the Potency was inconclusive: 63.1 µM [inhibitor, partial curve, poor fit]. `CC(C)(C)n1nnnc1C(c1ccc(C(F)(F)F)cc1)N(Cc1ccccc1)Cc1ccco1` (configuration not stated) was tested, and the “activity change, negative = inhibition” value was inactive: 430%. `Cc1ccc(C(=O)N2CCC3(CC2)NC(=O)N(c2ccccc2Cl)N3)cc1C` was tested, and the Potency was active: 1.26 µM. With `Cc1ccc2[nH]c3c(c2c1)CN(C(=O)CN1CCN(Cc2ccc4c(c2)OCO4)CC1)CC3` the Potency was inconclusive: 44.7 µM [inhibitor, partial curve, poor fit]. In the case of `COc1ccccc1N1CCN(C(=O)c2cc3n(n2)CC(c2ccc(Cl)cc2)OC3)CC1` (configuration not stated), the Potency is reported as inconclusive: 17.8 µM [inhibitor, partial curve, poor fit]. In the case of `CCc1ccc(-c2nn(C)c(=O)c3c2CCCC3)cc1S(=O)(=O)Nc1ccccc1`, the “activity change, negative = inhibition” value is reported as inactive: 0.0218%. `CC1(C)Cc2ccccc2C(=NCC(=O)O)N1` was tested, and the Potency was inconclusive: 44.7 µM [inhibitor, partial curve, poor fit]. `Cc1ccccc1CC(=O)N1CCC2(CC1)NC(=O)N(c1ccc(F)cc1)N2` was tested, and the Potency was inconclusive: 11.2 µM [inhibitor, full curve]. With `CCSC1=NC2(CCCCC2)Nc2sc3c(c21)CCCC3` the Potency was inconclusive: 3.55 µM [inhibitor, full curve, poor fit]. In the case of `CC(=O)c1cc2c(cc1N/C(=N/S(=O)(=O)c1ccc(Cl)cc1)c1ccc(F)cc1)OCO2`, the Potency is reported as inconclusive: 89.1 µM [inhibitor, partial curve, poor fit]. `CN(C(=O)CC1C(=O)NCCN1Cc1cccc(F)c1F)C1CCOCC1` (configuration not stated) was tested, and the Potency was active: 7.08 µM. For `CN(Cc1csc(-c2ccccc2)n1)C(=O)c1ccc(-n2cnnn2)cc1`, the Potency was inconclusive: 100 µM [inhibitor, partial curve, poor fit]. `c1ccc(-c2cc(-c3nnc4n3N=C(c3ccc5ccccc5c3)CS4)[nH]n2)cc1` was tested, and the “activity change, negative = inhibition” value was inactive: 7.3%. With `COc1ccc(-c2cc(C(=O)Nc3ccc(C)c(N)c3)c3ccccc3n2)cc1` the Potency was inconclusive: 56.2 µM [inhibitor, partial curve, poor fit]. In the case of `O=C(COC(=O)/C=C/c1cccs1)NC(c1ccccc1)c1ccccc1`, the “activity change, negative = inhibition” value is reported as inactive: 18.9%. `O=C1NS(=O)(=O)c2ccccc21` was tested, and the Potency was inconclusive: 12.8 µM [inhibitor, single point] and active: 12.6 µM. `N#Cc1ccccc1Cn1c(=O)n(CCC(=O)NCc2ccco2)c(=O)c2ccccc21` was tested, and the Potency was inconclusive: 282 µM [inhibitor, partial curve, poor fit]. With `Cc1ccc(CNC(=O)C2CCC(=O)N(Cc3ccc(Cl)cc3)C2)cc1F` (configuration not stated) the Potency was inconclusive: 44.7 µM [inhibitor, partial curve, poor fit]. For `CC(=O)c1c(C)cc(C)c(CSc2ccccn2)c1C`, the Potency was inconclusive: 35.5 µM [inhibitor, partial curve, poor fit]. `Cc1noc(C)c1-c1ccc(C(=O)NCc2ccccc2)c2occc12` was tested, and the Potency was inconclusive: 39.8 µM [inhibitor, single point]. With `O=C(Nc1ccc(F)cc1F)c1cc(CN2CCOCC2)on1` the Potency was inconclusive: 141 µM [inhibitor, single point]. With `CCc1cc(=O)oc2c(C)c3c(cc12)CN(CCc1ccccc1)CO3` the activity change, negative = inhibition was inconclusive: -43.5% [inhibitor]. With `CCOc1ccc(CN(C)CC(=O)Nc2cccc(S(=O)(=O)N(C)c3ccccc3)c2)cc1` the Potency was inconclusive: 0.708 µM [inhibitor, full curve]. In the case of `CC(C)C[C@H]1CN([C@@H](CC(C)C)CN2CCCC2CN2C(=S)NC[C@@H]2Cc2ccccc2)C(=S)N1CC1CCCCC1` (some centres not stated), the Potency is reported as inconclusive: 39.8 µM [inhibitor, partial curve]. In the case of `CN(C)S(=O)(=O)Oc1ccsc1C(=O)Nc1ccc(Cl)c(Cl)c1`, the “activity change, negative = inhibition” value is reported as inactive: -23.6%. `O=C(COc1ccc(Cl)cc1Cl)NCCSc1ccc(Cl)cc1` was tested, and the “activity change, negative = inhibition” value was inactive: -4.2%. For `CC(C)(C)NC(=O)NC(=O)CN1CCN(S(=O)(=O)c2ccc3c(c2)CCCC3)CC1`, the Potency was inconclusive: 112 µM [inhibitor, partial curve, poor fit]. For `CCCN1CCC2(CCN(C(=O)c3ccccc3)CC2)Oc2ccccc21`, the Potency was inconclusive: 25.1 µM [inhibitor, full curve, poor fit]. With `COc1ccccc1-c1sc2cc3c(cc2c1-c1ccc(O)cc1)OCO3` the Potency was inconclusive: 39.8 µM [inhibitor, partial curve, poor fit]. With `COc1ccc(CCNC2=NCCS2)cc1` the “activity change, negative = inhibition” value was inactive: -2.8%. `O=C(Nc1cc(Cl)cc(Cl)c1)C(NCCO)c1ccccc1` (configuration not stated) was tested, and the Potency was inconclusive: 0.891 µM [inhibitor, full curve, poor fit]. With `CCOCCn1c(CN2CCN(Cc3ccccc3)CC2)nc2c1c(=O)[nH]c(=O)n2C` the Potency was inconclusive: 70.8 µM [inhibitor, partial curve, poor fit].
